Results reported in US20210269815A1, “GENETICALLY MODIFIED PLANT AND USES THEREOF” (IST AUSTRIA, priority 2018, published 2021).
At least one compound was matched to its structure with a doubt left.

Test system: SYAC1 promoter
Assay: pSYAC1:GUS / pSYAC1:nlsGFP reporter expression in roots
Format: in vivo, Arabidopsis
Conditions: 6 hours exposure
Description: The syac1-1 (salk_151420C, Col-0, KAN^R) and syac1-2 (salk_151662B, Col-0, KAN^R) T-DNA insertion lines were obtained from the Salk Institute. The syac1-3 (GABI-KAT 760F05, Col-0, SUL^R) and syac1-4 (GABI-KAT 961C03, Col-0, SUL^R) T-DNA insertion lines were obtained from the GABI KAT seed collection. The syac1-5 CRISPR line was prepared in collaboration with the VBCF Protein Technologies Facility (www.vbcf.ac.at) (see below). The genetically modified fluorescent-protein marker lines in Col-0 background have been described elsewhere: mCherry tagged wave line 6, 9, 13, 18, 25, 29, 34, 127, 129, 131, 138 (Geldner et al., 2009, Plant J. 59, 169-178), SYP61:SYP61-CFP (Drakakaki et al., 2012, Cell Res. 22, 413-424). The echidna mutant has been described in (Gendre et al., 2011, PNAS 108, 8048-8053) and yip4a-2 yip4b-1 in (Gendre et al., 2013, The Plant Cell 25, 2633-2646). Seeds of Arabidopsis were plated and grown on square plates with solid half strength Murashige and Skoog (MS) medium (Duchefa) supplemented with 0.5 g L^−1 MES, 10 g L^−1 Sucrose, 1% agar and pH adjusted to 5.9. The plates were incubated at 4° C. for 48 h to synchronize seed germination and then vertically grown under a 16:8 h day/night cycle photoperiod at 21° C. Cytokinin and auxin treatments were performed with the N6-benzyladenine cytokinin derivative (Sigma) and Naphthaleneacetic acid (Sigma), respectively. […]

SMILES: O=C(O)Cc1cccc2ccccc12 [auxin, Naphthaleneacetic acid]
- pSYAC1 reporter signal (pSYAC1:GUS, pSYAC1:nlsGFP): activity of pSYAC1 in the QC and provasculature of the root apical meristem could be detected
